Record: PubChem BioAssay AID1259254 (NCATS, 2017)

Aim: 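Gene knock-downs that lead to re-replication, shown by excess G2 DNA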 (primary screen)
Cell system: human HCT116 colorectal cancer cells
Knock-down reagent: single siRNA against human genes
Duration: 3 days
Read-out: 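Imaged Hoechst DNA stain sorts each cell into a cycle phase by DNA amount; per plate, G2 fraction set to 0% for non-targeting and 100% for GMNN siRNA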
Scale: G2 robust z-score and G2 cells, % of GMNN control: higher = more G2 cells, more excess DNA replication
Active means: 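Active siRNAs have a G2 robust z of 5 or more median absolute deviations over the median, which in these data means about 38% or higher of GMNN control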
The whole screen tested about 59,000 reagents; this is a part drawn at random. About 1,550 of them (2.6%) were called active. 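G2 share is only a proxy for re-replication; each gene was hit by three separate siRNAs, and active genes were retested.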 Unmarked entries are inactive. Reagents against one gene are numbered here. Not all columns of the deposit are shown. Not stated in the record: the amount of reagent.

gene knocked down	siRNA no.	G2 robust z-score	G2 cells, % of GMNN control
UBXN11	1	-0.927	-3.56
UBXN11	2	-0.777	-2.5
UBXN11	3	1.07	10.5
LRRC58	1	0.0125	3.06
LRRC58	2	1.05	10.4
LRRC58	3	-0.0476	2.63
GFRA3	1	-0.951	-3.73
GFRA3	2	17 (active)	122
GFRA3	3	1.96	16.8
TRDMT1	1	-0.512	-0.632
TRDMT1	2	-0.269	1.08
TRDMT1	3	-0.546	-0.871
SLC16A1	1	0.0449	3.28
SLC16A1	2	-0.243	1.25
SLC16A1	3	0.174	4.19
ACOX2	1	-0.79	-2.59
ACOX2	2	0.197	4.35
ACOX2	3	1.06	10.4
AGL	1	-0.784	-2.55
AGL	2	-0.6	-1.26
AGL	3	-1.02	-4.19
DYNC1I2	1	2.05	17.4
DYNC1I2	2	2.57	21
DYNC1I2	3	-0.518	-0.68
BMP15	1	1.34	12.4
BMP15	2	1.66	14.7
BMP15	3	-0.187	1.65
SCML4	1	1.99	16.9
SCML4	2	4.51	34.7
SCML4	3	-0.136	2.01
ALKAL1	1	0.828	8.79
ALKAL1	2	0.76	8.31
ALKAL1	3	-0.00856	2.91
RTRAF	1	-0.262	1.12
RTRAF	2	-0.503	-0.571
RTRAF	3	-0.172	1.76
RRH	1	-0.249	1.21
RRH	2	1.63	14.5
RRH	3	-0.711	-2.03

A portion from the list above, as a working copy:
gene knocked down	siRNA no.	G2 robust z-score	G2 cells, % of GMNN control
ACOX2	3	1.06	10.4
AGL	1	-0.784	-2.55
AGL	2	-0.6	-1.26
AGL	3	-1.02	-4.19
DYNC1I2	1	2.05	17.4

The list goes on.
gene knocked down	siRNA no.	G2 robust z-score	G2 cells, % of GMNN control
ZNF837	1	0.885	9.19
ZNF837	2	0.00976	3.04
ZNF837	3	1.12	10.8
MAGEC3	1	1.79	15.6
MAGEC3	2	1.38	12.7
MAGEC3	3	-0.665	-1.71
ZSWIM7	1	-0.51	-0.623
ZSWIM7	2	0.301	5.08
ZSWIM7	3	-0.536	-0.803
MAP3K4	1	1.66	14.7
MAP3K4	2	-0.704	-1.98
MAP3K4	3	0.0604	3.39
DNM1L	1	7.29 (active)	54.2
DNM1L	2	-0.544	-0.862
DNM1L	3	1.78	15.5
BOP1	1	1.43	13
BOP1	2	0.996	9.98
BOP1	3	0.123	3.83
AP3S2	1	-1.14	-5.03
AP3S2	2	1.99	17
AP3S2	3	-0.834	-2.9
TRAPPC6A	1	0.0842	3.56
TRAPPC6A	2	-0.26	1.14
TRAPPC6A	3	-0.3	0.853
CNOT6L	1	-0.84	-2.94
CNOT6L	2	-0.0996	2.27
CNOT6L	3	1.99	17
A4GALT	1	-0.709	-2.02
A4GALT	2	1.2	11.4
A4GALT	3	0.416	5.89
CYP2S1	1	0.267	4.84
CYP2S1	2	0.317	5.2
CYP2S1	3	1.67	14.7
ATP1B4	1	-0.954	-3.74
ATP1B4	2	-0.781	-2.53
ATP1B4	3	4.08	31.7
TMEM130	1	-0.654	-1.63
TMEM130	2	-0.434	-0.0826
TMEM130	3	1.43	13
CAMLG	1	-0.484	-0.438
CAMLG	2	4.7	36
CAMLG	3	-0.728	-2.15
AFG2A	1	0.109	3.73
AFG2A	2	-0.782	-2.54
AFG2A	3	-0.167	1.79
SEC22B	1	-1.04	-4.37
SEC22B	2	-0.188	1.65
SEC22B	3	-0.558	-0.958
